Literature values, collected in US11823773B2, “Nant cancer vaccine strategies” (Nant Holdings IP, LLC, priority 2018, dated 2023).
At least one compound was matched to its structure with a doubt left.

System: advanced melanoma
[1] = advanced melanoma, clinical trials

CCCS(=O)(=O)Nc1ccc(F)c(C(=O)c2c[nH]c3ncc(-c4ccc(Cl)cc4)cc23)c1F [Vemurafenib]
PFS and OS (patients with advanced disease, BRAF V600E mutation): improvement in both PFS and OS

CN(C)/N=N/c1[nH]cnc1C(N)=O [dacarbazine]
ORR [1]: 10-20% | improvement in OS [1]: not been associated with improvements in OS

CC(=O)Nc1cccc(-n2c(=O)n(C3CC3)c(=O)c3c(Nc4ccc(I)cc4F)n(C)c(=O)c(C)c32)c1 [trametinib]
PFS compared to the chemotherapy group (either dacarbazine or paclitaxel) (monotherapy): improvement in PFS
